Source: the supplement of paper PMC11732987, “Enantioselective OTUD7B fragment discovery through chemoproteomics screening and high-throughput optimisation” (Communications Chemistry, 2025)
This is one part of the list. The data scatter; read single values as rough.

What follows are targets tested with ClCC(=O)N[C@H]1CCCc2ccccc12 (assay: log2 mean competition ratio of IA-DTB cysteine labelling (DMSO/compound) (log2 ratio); higher = stronger cysteine engagement by compound). Details: 200 µM; treatment time: 4 h; cell line lysate: HEK293T.
Protocol: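 IA-DTB competitive cysteine chemoproteomics in HEK293T RIPA lysate. Lysates were treated with compound 29 or 30 at 50 or 200 µM for 4 h, then IA-DTB (500 µM, 1 h), trypsin-digested, NeutrAvidin-enriched and analysed by diaPASEF. Competition ratio = intensity DMSO / intensity compound (n=4 treated, n=64 DMSO); binding: mean log2 CR ≥ 1 and p ≤ 0.05 plus QC filters. Target is the cysteine site.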

| Target | log2 mean competition ratio |
| --- | --- |
| NIPBL C2374 (UniProt Q6KC79) | -0.0478 |
| NCAPH2 C184 (UniProt Q6IBW4) | -0.12 |
| NCOR2 C866 | -0.114 |
| NOPCHAP1 C13 | -0.0286 |
| NIT2 C153 (UniProt Q9NQR4) | 0.378 |
| NCKIPSD C138 (UniProt Q9NZQ3) | 0.335 |
| NF1 C434 (UniProt P21359) | 0.0217 |
| NIT2 C44 (UniProt Q9NQR4) | -0.0647 |
| NEDD1 C314 (UniProt Q8NHV4) | -0.507 |
| NKRF C386 (UniProt O15226) | -0.0536 |
| NME2 C145 (UniProt P22392) | -0.0717 |
| NCAPG C177 (UniProt Q9BPX3) | 0.0084 |
| NFKBIB C6 (UniProt Q15653) | 0.552 |
| NEK4 C466 (UniProt P51957) | 0.264 |
| NLRX1 C481 (UniProt Q86UT6) | -0.0962 |
| NFKB2 C4 (UniProt Q00653) | -0.0439 |
| NATD1 C17 (UniProt Q8N6N6) | -0.0298 |
| NOP14 C580 (UniProt P78316) | -0.0737 |
| NEK3 C504 (UniProt P51956) | 0.16 |
| NOSIP C185 (UniProt Q9Y314) | 0.0553 |
| NBEA C369 (UniProt Q8NFP9) | -0.497 |
| NEU3 C90 (UniProt Q9UQ49) | -0.0604 |
| NDC80 C528 (UniProt O14777) | -0.244 |
| NEDD1 C66 (UniProt Q8NHV4) | -0.0348 |
| NFKB2 C738 (UniProt Q00653) | 0.142 |
| NBAS C897 (UniProt A2RRP1) | -0.0827 |
| NLRX1 C331 (UniProt Q86UT6) | -0.159 |
| NIBAN2 C466 (UniProt Q96TA1) | 0.0609 |

Rewritten bar-delimited: entries from further up.
Target | log2 mean competition ratio
NCAPH2 C184 (UniProt Q6IBW4) | -0.12
NOPCHAP1 C13 | -0.0286
NIT2 C153 (UniProt Q9NQR4) | 0.378
NATD1 C17 (UniProt Q8N6N6) | -0.0298
NBEA C369 (UniProt Q8NFP9) | -0.497
